Measured data: PubChem BioAssay AID602196 (INSERM, 2012)

Test: 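Knock-downs that protect lung cancer cells from cisplatin or sensitise them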
Cell system: human A549 lung cancer cells
Knock-down reagent: siRNA pair against human genes
Time to read-out: 48 h transfection before cisplatin; time from cisplatin to read-out not stated
Treatment: cisplatin at a dose killing half of control-siRNA cells; exact dose and duration not given
Detection: 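Shift in cisplatin death relative to control siRNA, from -50 (all cells die) to +50 (no cells die); siRNAs harmful on their own scored 0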
Scale: two-siRNA summed score (-2 to +2): higher = both siRNAs protect from cisplatin killing; -2 means both sensitise
Call rule: 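Each siRNA scores 0 if harmful alone by LDH or WST-1, otherwise +1 if it reduces and -1 if it increases cisplatin killing; a gene is active when both siRNAs agree (sum +2 or -2)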
Meaning of the calls: active = both siRNAs shift cisplatin killing the same way; inactive = no consistent shift, or siRNA harmful alone
This is one part, drawn at random, of about 23,000 reagents. In the full data, 455 (2%) got an active call. 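Active includes both protection and sensitisation; some change values fall well beyond the stated -50 to +50 range.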 Not all columns of the deposit are shown. The record does not give: the amount of reagent.

Silencing of CSN3 (casein kappa) resulted in: two-siRNA summed score (-2 to +2) = -1; inactive.
ELP4 (elongator acetyltransferase complex subunit 4) scored two-siRNA summed score (-2 to +2) = -1; inactive.
For IBTK (inhibitor of Bruton tyrosine kinase) the deposit lists two-siRNA summed score (-2 to +2) = 1; inactive.
Against CA5BP1 (carbonic anhydrase 5B pseudogene 1), the values are two-siRNA summed score (-2 to +2) = 0; inactive.
Silencing of EBF3 (EBF transcription factor 3) gave: two-siRNA summed score (-2 to +2) = 0; inactive.
For FAM24A (family with sequence similarity 24 member A), the values are two-siRNA summed score (-2 to +2) = 1; inactive.
DNASE1L2 (deoxyribonuclease 1 like 2) showed two-siRNA summed score (-2 to +2) = -1; inactive.

Records above whose gene name starts with C or c (2):
CSN3 (casein kappa) — two-siRNA summed score (-2 to +2): -1; Outcome: inactive
CA5BP1 (carbonic anhydrase 5B pseudogene 1) — two-siRNA summed score (-2 to +2): 0; Outcome: inactive

Additional entries follow:
Depletion of PRAMEF2 (PRAME family member 2) resulted in: two-siRNA summed score (-2 to +2) = 0; inactive.
Against ACE (angiotensin I converting enzyme), the values are two-siRNA summed score (-2 to +2) = 0; inactive.
GLT8D2 (glycosyltransferase 8 domain containing 2) showed two-siRNA summed score (-2 to +2) = 0; inactive.
After knock-down of SLC4A4 the results were two-siRNA summed score (-2 to +2) = 0; inactive.
LOC285045 scored two-siRNA summed score (-2 to +2) = 1; inactive.
